The whole screen tested about 320,000 compounds, of which about 22,000 (6.9%) were called active. Inconclusive results, whose numbers are uncertain, are shown with a selection of clear calls. Calls follow the shape of the dose curve; as a rule, active = well fitted inhibition curve with a large enough effect; inconclusive = small, poorly fitted or top-dose-only effect, or another doubt; inactive = no such curve, though single readings can be large or run the other way. Potencies beside an inconclusive call are fits to weak or partial responses and may not hold up.
Assay: Primary qHTS for delayed death inhibitors of the malarial parasite plastid, 96 hour incubation
Details: P. falciparum luciferase reporter growth; series mostly up to 28.7 µM; activity change, negative = inhibition: at the top concentration
In short: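 Compounds incubated with erythrocytes infected by luciferase-expressing P. falciparum (2% hematocrit, 0.05% parasitemia final) for 96 hours, 37 C in 5% CO2. Growth inhibition scored as decreased luciferase luminescence.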
% is scaled to controls: 0 for no effect and ±100 for the full control effect; potency is read from the fitted curve at half-maximal effect.

SMILES | Potency | activity change, negative = inhibition
Cc1ncc([N+](=O)[O-])n1CCOC(=O)NC(NCc1cccnc1)C(Cl)(Cl)Cl (stereo not drawn) | inconclusive: 18.5 µM [inhibitor, single point] | 
O=C(Nc1nc2ccccc2[nH]1)c1cccs1 | active: 0.465 µM | 
CSc1c(CC(=O)Nc2ccccc2)n(C)c2ccccc12 | inconclusive: 0.185 µM [inhibitor, partial curve, poor fit] | 
CC1(c2nnc(-c3ccc(F)cc3)o2)CC(c2cccc(Cl)c2)=NO1 (stereo not drawn) |  | inactive: 65.1%
CCCC(=O)Nc1nnc(SCC(=O)Nc2ccc3c(c2)OCCO3)s1 | inconclusive: 0.0104 µM [inhibitor, full curve, poor fit] | 
C=CCn1c(=O)c2c(nc3n2CC(C)CN3Cc2ccccc2)n(C)c1=O (stereo not drawn) | inconclusive: 5.22 µM [inhibitor, partial curve] | 
CC(NC(=O)CN1C(=O)NC(C)(c2cccc3ccccc23)C1=O)c1ccccc1 (stereo not drawn) |  | inactive: -10.8%
COc1ccc(/C=N/NC(=S)Nc2ccccc2)cc1COc1ccc(Br)cc1 | active: 3.7 µM | 
NC(=O)Cn1cc(/C=N\NS(=O)(=O)c2cccc([N+](=O)[O-])c2)c2ccccc21 |  | inactive: -11%
CC1=NN(C(=O)c2cccnc2)C(O)(C(F)(F)F)C1 (stereo not drawn) |  | inactive: -36.8%
CCCn1c(SCC(=O)Nc2cccc(C)n2)nnc1-c1ccco1 |  | inactive: 9.55%
COc1cc(NC(=O)c2cc([N+](=O)[O-])ccc2NC(=O)CNC2CCCCC2C)cc(OC)c1 (stereo not drawn) |  | inactive: 35.7%
CCOc1ccc(NC(=O)C(C)SC(N)=O)cc1 (stereo not drawn) | inconclusive: 14.7 µM [inhibitor, single point] | 
Cc1ccccc1N1C(=O)NC(=O)/C(=C\c2ccc3c(c2)CCCN3Cc2ccccc2)C1=O |  | inactive: 1.54%
COc1ccc(-c2nnc(SCC(=O)c3cccs3)n2-c2ccc(Cl)cc2)cc1 |  | inactive: 13.6%
COc1cc2c(cc1OC)C(C)N(C(=O)c1cccc([N+](=O)[O-])c1)CC2 (stereo not drawn) | active: 0.522 µM | 
Cc1cc(C)nc(NC(=NCCc2c[nH]c3ccccc23)NC(=O)Nc2ccc(Cl)c(Cl)c2)n1 | active: 2.08 µM | 
C#CCOCCOCCOCCNc1nc(N2CCN(C(=O)[C@H]([C@@H](C)CC)n3cc([C@@H](N)Cc4ccc(O)cc4)nn3)CC2)nc(N2CCN(C(=O)[C@H](Cc3ccc(O)cc3)n3cc([C@@H](N)CC(C)C)nn3)CC2)n1 | inconclusive: 2.08 µM [inhibitor, full curve, poor fit] | 
COc1ccc(C(=O)C2CCCN(C(=O)c3ccc(CSC)o3)C2)cc1F (stereo not drawn) |  | inactive: -12.1%
CN(C)Cc1c(C(=O)N/N=C/c2cccc(OCc3ccc(F)cc3)c2)nnn1-c1nonc1N | inconclusive: 20.8 µM [inhibitor, partial curve, poor fit] | 
CCCCCOc1ccc(CSCCNC(=S)Nc2ccccc2)cc1 | active: 10.4 µM | 
Cc1oc(-c2ccc(Cl)cc2)nc1CN1CCCC(C(=O)NCc2cccnc2)C1 (stereo not drawn) |  | inactive: 0.295%
CCOc1ccc(NC(=O)COc2ccccc2)c([N+](=O)[O-])c1 |  | inactive: -28.4%
Cc1ccsc1-c1ccnc(-n2cccc2)n1 |  | inactive: 11.3%

SMILES | Potency | activity change, negative = inhibition
CCCCCCn1c(CN2CCN(C(=O)c3ccco3)CC2)nc2c1c(=O)n(C)c(=O)n2C | inconclusive: 6.57 µM [inhibitor, partial curve] | 
COc1cc(NC(=O)c2cc(-c3ccco3)on2)c(OC)cc1Cl |  | inactive: 25%
Cc1ccc(S(=O)(=O)N2CCCCC2)cc1NC(=O)c1ccc(Cl)nc1 | inconclusive: 13.1 µM [inhibitor, single point] | 
O=C(O)CN1C(=O)/C(=C\c2cc(Br)ccc2OCc2ccc(Cl)cc2)SC1=S | active: 10.4 µM | 
COc1cc(/C=C2\COC/C(=C\c3cc(OC)c(OC)c(OC)c3)C2=O)cc(OC)c1OC | active: 0.828 µM | 
O=C(c1ccc(N2CCCC2)c([N+](=O)[O-])c1)N1CCN(c2ccccn2)CC1 | inconclusive: 7.38 µM [inhibitor, single point] | 
COc1cccc(/C=C/C(=O)N2CCN(S(=O)(=O)c3ccccc3)CC2)c1OC | inconclusive: 5.86 µM [inhibitor, partial curve] | 
Cc1ccc(NC(=S)NNC(=S)NC2CCCCC2)cc1 |  | inactive: -3.89%
COc1ccc(-n2cc(-c3ccccc3)nc2SC)cc1 |  | inactive: 3.79%
COc1cccc(C(=O)Nc2ccncc2)c1 |  | inactive: 20.3%
CCOC(=O)c1cc2sccc2n1CC(=O)OC(C)C |  | inactive: 9.35%
Cc1nc2ccccc2c2oc(C(=O)NCc3ccc4c(c3)OCO4)cc12 | inconclusive: 13.1 µM [inhibitor, single point] | 
CCOc1ccc(Cn2nnc(C(=O)Nc3cc(OC)cc(OC)c3)c2N)cc1 | inconclusive: 10.4 µM [inhibitor, single point] | 
O=P(c1ccccc1)(c1ccccc1)c1nc(-c2ccccc2)oc1NCc1ccccc1 | active: 9.28 µM | 
Cc1[nH]n(-c2ccccc2)c(=O)c1N=Nc1ccc(Cl)cc1 |  | inactive: -0.259%
O=C(NC1CCCC1)C(c1ccccn1)N(C(=O)c1csnn1)C1CCCC1 (stereo not drawn) | inconclusive: 18.5 µM [inhibitor, single point] | 
O=c1oc2c(CN3CCCCC3)c(O)ccc2c2c1CCCCC2 | active: 10.4 µM | 
Cc1ccc(OCC(O)CN2C(=O)NC(C)(C)C2=O)cc1 (stereo not drawn) |  | inactive: -9.05%
Cc1ccccc1N1C(=O)CC(c2c[nH]c3ccccc23)C1=O (stereo not drawn) | inconclusive: 3.29 µM [inhibitor, partial curve, poor fit] | 
CCCCC(C)(O)C/C=C/[C@H]1[C@H](O)CC(=O)[C@@H]1CCCCCCC(=O)OC (stereo partly drawn) | inconclusive: 18.5 µM [inhibitor, single point] | 
Cc1cccc(OC(C)C(=O)N2CCCN(C)CC2)c1C (stereo not drawn) | inconclusive: 13.1 µM [inhibitor, partial curve, poor fit] | 
CC(C)CN1C(=O)NC(NC(=O)c2cccs2)(C(F)(F)F)C1=O (stereo not drawn) |  | inactive: 15.4%
O=C(c1ccc2c(c1)OCO2)N1CCC2(CC1)Oc1ccc(Cl)cc1C(=O)C21CC(c2ccc(Cl)cc2)=NO1 (stereo not drawn) | inconclusive: 1.65 µM [inhibitor, partial curve, poor fit] | 
Cc1ccc(NC(=O)Cc2ccc(-n3cccc3)cc2)c(C)c1 | inconclusive: 18.5 µM [inhibitor, single point] | 

One compound at a time, as listed above.
Cc1ccc(S(=O)(=O)N2CCCCC2)cc1NC(=O)c1ccc(Cl)nc1 in the list: Potency: inconclusive: 13.1 µM [inhibitor, single point]
Cc1ccccc1N1C(=O)CC(c2c[nH]c3ccccc23)C1=O (stereo not drawn) in the list: Potency: inconclusive: 3.29 µM [inhibitor, partial curve, poor fit]
Cc1ccc(NC(=O)Cc2ccc(-n3cccc3)cc2)c(C)c1 in the list: Potency: inconclusive: 18.5 µM [inhibitor, single point]

Source: PubChem BioAssay AID504834 (National Center for Advancing Translational Sciences (NCATS), 2011)
